# From PubChem BioAssay AID504467 (National Center for Advancing Translational Sciences (NCATS), 2011)
# The whole screen tested about 330,000 compounds, of which about 7,700 (2.3%) were called active. The shares of active, inactive and inconclusive entries below differ from those in the screen. Calls follow the shape of the dose curve; as a rule, active = well fitted inhibition curve with a large enough effect; inconclusive = small, poorly fitted or top-dose-only effect, or effect the other way; inactive = flat fitted curve, though single readings scatter. Potencies beside an inconclusive call are fits to weak or partial responses and may not hold up.
# Experiment: qHTS screen for small molecules that inhibit ELG1-dependent DNA repair in human embryonic kidney (HEK293T) cells expressing luciferase-tagged ELG1; also: nearly all actives have a fitted effect of over 55% in size
# Details: HEK293T ELG1-luciferase reporter, luminescence, 16 h, DNA damage induced by 5-fluorouridine; series mostly up to 46.1 µM
# Procedure, shortened: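 Quantitative HTS, concentration-response format. 2,000 cells/well co-treated with 5-fluorouridine and compound, 16 hr in 5% CO2 at 37 °C; ONE-Glo luminescence read after 30 min.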
# Potency is read from the fitted curve at half-maximal effect.
row,Compound,Potency
1,Nc1nonc1-n1nnc(C(=O)N/N=C/c2ccco2)c1-c1ccccc1,inactive
2,c1ccc(Oc2cc(-n3cncn3)ncn2)cc1,"inconclusive: 16.4 µM [activator, single point]"
3,COc1ccc(/C(N)=N/OC(=O)CC2CCCCC2)cc1OC,"inconclusive: 29.1 µM [activator, single point]"
4,CCOC(=O)C1=C(C)Nc2nc3ccccc3n2C1c1ccncc1 (stereo not given),inactive
5,CCN(CC)CC(=O)Nc1ccc(C)cc1C(=O)c1ccccc1,"inconclusive: 20.6 µM [inhibitor, partial curve, poor fit]"
6,O=[N+]([O-])/C(C(Cl)=C(Cl)Cl)=C(/Sc1ccccc1)N1CCCCC1,"inconclusive: 18.3 µM [activator, partial curve, poor fit]"
7,CCCC(=O)Nc1cc(-c2nc3ncccc3o2)ccc1Cl,inactive
8,CCCC[n+]1ccn(C2=C([O-])c3ccccc3C(=O)/C2=N\S(=O)(=O)c2ccc(Br)cc2)c1,inactive
9,Cn1c(C(=O)N2CCN(c3cccc(C(F)(F)F)c3)CC2)cc2sccc21,"inconclusive: 29.1 µM [inhibitor, single point]"
10,c1ccc(-n2nnnc2SCc2cccc(CSc3nnnn3-c3ccccc3)n2)cc1,"inconclusive: 23.1 µM [inhibitor, single point]"
11,CCc1ccc(N(C(=O)c2csnn2)C(C(=O)NC(C)(C)C)c2ccccn2)cc1 (stereo not given),"inconclusive: 23.1 µM [activator, single point]"
12,COc1ccc(Cn2c(C)c(C)c(C#N)c2NC(=O)Nc2cccc(Cl)c2)cc1,"inconclusive: 32.6 µM [activator, partial curve, poor fit]"
13,C/C(Cl)=C\Cn1c(Nc2ccc(C)cc2)nc2c1c(=O)n(C)c(=O)n2C,active: 5.17 µM
14,C=CCc1ccccc1OCC(O)CNC(C)C (stereo not given),inactive
15,CN=c1scc(-c2cccs2)n1/N=C/c1ccc(O)c(O)c1O,"inconclusive: 4.11 µM [activator, partial curve]"
16,CC(Sc1nnc(-c2ccco2)o1)C(=O)NCCC1=CCCCC1 (stereo not given),inactive
17,CCc1nnc(NC(=O)c2cc(-c3cccnc3)nc3ccccc23)s1,inactive
18,COc1cccc(N=C(N)N=C(N)N)c1,inactive
19,CC(C)(C)OC(=O)C[C@@H]1C/C=C\C[C@H](CC(=O)N[C@H](CO)Cc2ccccc2)C(=O)N[C@H](Cc2ccccc2)COC1=O,"inconclusive: 18.3 µM [inhibitor, partial curve]"
20,COc1cc2[nH]c(=O)n(CCC(=O)N3CCN(Cc4ccccc4)CC3)c(=O)c2cc1OC,"inconclusive: 29.1 µM [inhibitor, single point]"

# By substructure, the entries above with an aryl thioether with sulfur outside any ring (3)
row,Compound,Potency
6,O=[N+]([O-])/C(C(Cl)=C(Cl)Cl)=C(/Sc1ccccc1)N1CCCCC1,"inconclusive: 18.3 µM [activator, partial curve, poor fit]"
10,c1ccc(-n2nnnc2SCc2cccc(CSc3nnnn3-c3ccccc3)n2)cc1,"inconclusive: 23.1 µM [inhibitor, single point]"
16,CC(Sc1nnc(-c2ccco2)o1)C(=O)NCCC1=CCCCC1 (stereo not given),inactive
